Experimental data from PubChem BioAssay AID248 (DTP/NCI, 2004).
The list shows only some results of the screen, not a fair sample: it gathers tests that were run many times, whatever their T/C, doses with no T/C, and many T/C values between a quarter and a half above the control. Other doses and runs of a compound stand elsewhere. T/C: endpoint of the treated group in % of that of the vehicle group. Some doses have a count of surviving animals in place of a T/C: the source holds a T/C of zero for them, seemingly a mark for toxic or unscored doses. Some survivor counts are full or nearly so, which does not show that the dose was tolerated: the source hardly ever lists a survival T/C far under the control, and the zero likely stands for such cases as well. Survivors were counted at the toxicity check, usually on the fifth day, unless a day is given; later deaths do not show. Schedule codes are those of the source, taken here to give the interval after Q, in days (D) or hours (H), and the number of doses after X. Some schedules carry Z or #; the key to these is not given. Some entries hold several experiments; the values are given in rising order. For survival time, the PubChem record calls one and a half times the control and up active, and a quarter to a half above the control has no call in these data; cut-offs in other NCI protocols can differ. Some T/C values are followed by the survivors on the day toxicity was checked, most often the fifth; where none is given, no animal had died by that day.

Test system: L1210 leukemia ip in BDF1 mice, survival T/C
Experiment: NCI In Vivo Anticancer Drug Screen. Data for tumor model L1210 Leukemia (intraperitoneal) in B6D2F1 (BDF1) mice
Settings: T/C endpoint: mean survival time, higher T/C = longer survival
[1] = dose: 320.0 mg/kg/injection, schedule: Q01DX Z (ip), vehicle: saline
[2] = dose: 75.0 mg/kg/injection, schedule: Q01DX001 (ip), vehicle: saline
[3] = dose: 150.0 mg/kg/injection, schedule: Q01DX001 (ip), vehicle: saline
[4] = dose: 300.0 mg/kg/injection, schedule: Q01DX001 (ip), vehicle: saline

CC(C)NCC(=O)c1ccc(O)c(O)c1
survivor count (dose: 10.0 mg/kg/injection, schedule: Q#A X Z (ip), vehicle: methylcellulose (MC)): 1 of 6
survivor count (dose: 20.0 mg/kg/injection, schedule: Q01DX Z (ip), vehicle: saline): 6 of 6
survivor count (dose: 40.0 mg/kg/injection, schedule: Q#A X Z (ip), vehicle: methylcellulose (MC)): 2 of 6
survivor count (dose: 60.0 mg/kg/injection, schedule: Q03DX Z (ip), vehicle: methylcellulose (MC)): 3 of 6
T/C (dose: 74.0 mg/kg/injection, schedule: Q01DX Z (ip), vehicle: saline): 130 % of control
survivor count (dose: 80.0 mg/kg/injection, schedule: Q#A X Z (ip), vehicle: methylcellulose (MC)): 2 of 6
T/C (dose: 111.0 mg/kg/injection, schedule: Q01DX Z (ip), vehicle: saline): 136 % of control
survivor count (dose: 140.0 mg/kg/injection, schedule: Q07DX Z (ip), vehicle: methylcellulose (MC)): 1 of 6
survivor count (dose: 160.0 mg/kg/injection, schedule: Q#A X Z (ip), vehicle: methylcellulose (MC)): 2 of 6
T/C (dose: 166.0 mg/kg/injection, schedule: Q01DX Z (ip), vehicle: saline): 131 % of control
T/C (dose: 200.0 mg/kg/injection, schedule: Q01DX Z (ip), vehicle: carboxymethylcellulose (CMC)): 125 % of control
T/C (dose: 250.0 mg/kg/injection, schedule: Q01DX Z (ip), vehicle: carboxymethylcellulose (CMC)): 127 % of control
T/C (dose: 250.0 mg/kg/injection, schedule: Q01DX Z (ip), vehicle: saline): 135 % of control
survivor count (dose: 280.0 mg/kg/injection, schedule: Q07DX Z (ip), vehicle: methylcellulose (MC)): 2 of 6
survivor count (dose: 288.0 mg/kg/injection, schedule: Q04DX003 (ip), vehicle: saline): 10 of 10
T/C [1]: 131 % of control [5 of 6 alive]
survivor count [1]: 0 of 6
survivor count (dose: 320.0 mg/kg/injection, schedule: Q#A X Z (ip), vehicle: methylcellulose (MC)): 0 of 6
survivor count (dose: 430.0 mg/kg/injection, schedule: Q01DX001 (ip), vehicle: saline): 6 of 10
survivor count (dose: 478.0 mg/kg/injection, schedule: Q03HX024 (ip), vehicle: saline): 1 of 10
survivor count (dose: 500.0 mg/kg/injection, schedule: Q01DX Z (ip), vehicle: carboxymethylcellulose (CMC)): 0 of 6
survivor count (dose: 560.0 mg/kg/injection, schedule: Q07DX Z (ip), vehicle: methylcellulose (MC)): 2 of 6
survivor count (dose: 642.0 mg/kg/injection, schedule: Q01DX001 (ip), vehicle: saline): 0 of 10
survivor count (dose: 642.0 mg/kg/injection, schedule: Q04DX003 (ip), vehicle: saline): 0 of 10
survivor count (dose: 717.0 mg/kg/injection, schedule: Q01DX009 (ip), vehicle: saline): 0 of 10
survivor count (dose: 717.0 mg/kg/injection, schedule: Q03HX024 (ip), vehicle: saline): 0 of 10
survivor count (dose: 958.0 mg/kg/injection, schedule: Q01DX001 (ip), vehicle: saline): 0 of 10
survivor count (dose: 958.0 mg/kg/injection, schedule: Q04DX003 (ip), vehicle: saline): 0 of 10
survivor count (dose: 960.0 mg/kg/injection, schedule: Q03DX Z (ip), vehicle: methylcellulose (MC)): 0 of 6
survivor count (dose: 1000.0 mg/kg/injection, schedule: Q01DX Z (ip), vehicle: carboxymethylcellulose (CMC)): 0 of 6
survivor count (dose: 1120.0 mg/kg/injection, schedule: Q07DX Z (ip), vehicle: methylcellulose (MC)): 0 of 6
survivor count (dose: 1430.0 mg/kg/injection, schedule: Q01DX001 (ip), vehicle: saline): 0 of 10
survivor count (dose: 1430.0 mg/kg/injection, schedule: Q04DX003 (ip), vehicle: saline): 0 of 10
survivor count (dose: 2100.0 mg/kg/injection, schedule: Q01DX001 (ip), vehicle: saline): 0 of 10
survivor count (dose: 2100.0 mg/kg/injection, schedule: Q04DX003 (ip), vehicle: saline): 0 of 10
survivor count (dose: 3200.0 mg/kg/injection, schedule: Q01DX001 (ip), vehicle: saline): 0 of 10
survivor count (dose: 3200.0 mg/kg/injection, schedule: Q04DX003 (ip), vehicle: saline): 0 of 10
survivor count (dose: 4780.0 mg/kg/injection, schedule: Q01DX001 (ip), vehicle: saline): 0 of 10
survivor count (dose: 4780.0 mg/kg/injection, schedule: Q04DX003 (ip), vehicle: saline): 0 of 10
survivor count (dose: 7170.0 mg/kg/injection, schedule: Q01DX001 (ip), vehicle: saline): 0 of 10
survivor count (dose: 7170.0 mg/kg/injection, schedule: Q04DX003 (ip), vehicle: saline): 0 of 10

CCn1c(O)c(C=N)c(=O)[nH]c1=O
survivor count (dose: 400.0 mg/kg/injection, schedule: Q01DX009 (ip), vehicle: saline): 3 of 6

CC(=O)Oc1cc2c(cc1N=NN(C)C)[C@H]1CC[C@]3(C)[C@@H](O)CC[C@H]3[C@@H]1CC2
survivor count (dose: 100.0 mg/kg/injection, schedule: Q01DX009 (ip), vehicle: Klucel (hydroxypropylcellulose) (HPC)): 3 of 3
survivor count (dose: 200.0 mg/kg/injection, schedule: Q01DX009 (ip), vehicle: Klucel (hydroxypropylcellulose) (HPC)): 2 of 3

O=C(c1cc(C(F)(F)F)cc(C(F)(F)F)c1)N1CC1
survivor count (dose: 25.0 mg/kg/injection, schedule: Q01DX009 (ip), vehicle: water): 5 of 6

Nc1nc(=S)c2ncn(CN3CCCCC3)c2[nH]1
T/C (dose: 1.3 mg/kg/injection, schedule: Q01DX Z (ip), vehicle: carboxymethylcellulose (CMC)): 140 % of control
T/C (dose: 2.0 mg/kg/injection, schedule: Q01DX Z (ip), vehicle: carboxymethylcellulose (CMC)): 146 % of control
T/C (dose: 3.0 mg/kg/injection, schedule: Q01DX Z (ip), vehicle: carboxymethylcellulose (CMC)): 145 % of control [5 of 6 alive]
T/C (dose: 4.5 mg/kg/injection, schedule: Q01DX Z (ip), vehicle: carboxymethylcellulose (CMC)): 137 % of control

O=C1C(Cl)=C(NCc2ccccc2Cl)C(=O)c2ccccc21
survivor count (dose: 100.0 mg/kg/injection, schedule: Q01DX001 (ip), vehicle: saline with Tween-80): 0 of 6
survivor count (dose: 200.0 mg/kg/injection, schedule: Q01DX001 (ip), vehicle: saline with Tween-80): 0 of 6
survivor count (dose: 400.0 mg/kg/injection, schedule: Q01DX001 (ip), vehicle: saline with Tween-80): 0 of 6

CCCCCCCCCCCCCCC[n+]1cccc(C#N)c1
survivor count (dose: 10.0 mg/kg/injection, schedule: Q01DX001 (ip), vehicle: saline): 6 of 6
survivor count [2]: 1 of 6
survivor count [3]: 0 of 6
survivor count [4]: 0 of 6

Nc1scc2[nH]c3ccccc3[n+]12
survivor count (dose: 400.0 mg/kg/injection, schedule: Q04DX002 (ip), vehicle: saline): 0 of 3

CN(C)CC[CH2][Sn]([CH3])([CH3])[CH3]
survivor count (dose: 50.0 mg/kg/injection, schedule: Q01DX009 (ip), vehicle: saline): 0 of 3
survivor count (dose: 100.0 mg/kg/injection, schedule: Q01DX009 (ip), vehicle: saline): 0 of 3
survivor count (dose: 200.0 mg/kg/injection, schedule: Q01DX009 (ip), vehicle: saline): 0 of 3

OCCN(Cc1cccnc1)Cc1ccccn1
survivor count (dose: 37.5 mg/kg/injection, schedule: Q01DX001 (ip), vehicle: saline): 1 of 6
survivor count [2]: 0 of 6
survivor count [3]: 0 of 6
survivor count [4]: 0 of 6

CCCCCCCCCCCC[N+]1([O-])CCOCC1
survivor count (dose: 100.0 mg/kg/injection, schedule: Q04DX002 (ip), vehicle: saline with Tween-80): 3 of 3

CCN(CC)C(C)(C)CCl
survivor count (dose: 200.0 mg/kg/injection, schedule: Q01DX001 (ip), vehicle: saline): 0 of 6
survivor count (dose: 400.0 mg/kg/injection, schedule: Q01DX001 (ip), vehicle: saline): 0 of 6

CCOC(=O)c1ccc(NC(=O)c2ccc(Cl)cc2Cl)cc1
survivor count (dose: 400.0 mg/kg/injection, schedule: Q01DX009 (ip), vehicle: saline with Tween-80): 0 of 3 and 2 of 6

Nc1nc2nc3c(nc2c(=O)[nH]1)CN(C1CCCCC1)C3=O
survivor count (dose: 300.0 mg/kg/injection, schedule: Q01DX001 (ip), vehicle: carboxymethylcellulose (CMC)): 1 of 6
